Data as given in PubChem BioAssay AID504784 (Drosophila RNAi Screening Center, 2011).
The screen tested about 17,000 reagents; below is a random part of those with a known target gene and a result. 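Each column is one replicate's B-score; the combined score over replicates was not deposited, so single values may mislead.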 Names joined by + are all predicted targets of the reagent.

Purpose: 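Search for regulators of lipid droplet storage in oleate-fed fly cells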 (primary screen)
System: Drosophila Kc167 embryonic cells
Reagents: long dsRNA against Drosophila genes, about 250 ng dsRNA per well
Duration: 4 days
Challenge: cells fed 400 µM oleic acid bound to BSA
Measurement: 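Cells imaged and segmented; ratio of lipid droplet area to nuclear area, log-transformed, then normalised as a B-score over the screen; higher means more stored lipid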
Reading the numbers: droplet/nuclear area B-score: higher = more stored lipid (overstorage)

| Target gene | DRSC id | droplet/nuclear area B-score, replicate 1 | droplet/nuclear area B-score, replicate 2 | droplet/nuclear area B-score, replicate 3 |
| --- | --- | --- | --- | --- |
| otk2 | DRSC07303 | -0.0397 | 0.00252 | – |
| Fdx1 | DRSC11167 | 2.64 | 1.08 | – |
| Cpr97Eb | DRSC15123 | 1.66 | -0.0212 | – |
| Ho | DRSC14939 | 3.84 | -0.851 | – |
| CG18628 | DRSC10328 | 0.396 | -0.858 | – |
| CG15764 | DRSC18070 | 0.0472 | -0.759 | – |
| CG15422 | DRSC00436 | -0.187 | 1.49 | – |
| St1 | DRSC04504 | 0.0764 | 0.678 | – |
| CG13062 | DRSC09945 | 0.703 | 0.5 | – |
| CG14085 | DRSC10089 | 2.03 | 1.34 | – |
| Nep7 | DRSC15830 | 1.82 | -0.0673 | – |
| CR31822 | DRSC01510 | -0.265 | 1.1 | – |
| Gmer | DRSC04376 | 1.68 | 2.5 | – |
| Gr93c | DRSC14587 | -0.0647 | -0.114 | – |
| stnB + stnA | DRSC20969 | 1.28 | -0.959 | – |
| stnB + stnA | DRSC21112 | 0.996 | 0.315 | – |
| stnB + stnA | DRSC21113 | 1.12 | -0.266 | – |
| CG30094 | DRSC22268 | -0.173 | 0.188 | – |
| ouib | DRSC14376 | 0.561 | -0.0582 | – |
| Yp3 | DRSC20302 | 0.914 | 1.52 | – |
| TRAM | DRSC18178 | -0.681 | -0.365 | – |
| TRAM | DRSC18651 | 0.0637 | -1.39 | – |
| Acp26Aa | DRSC01855 | -3.29 | 0.515 | – |
| Sry-delta | DRSC16869 | 0.943 | – | – |
| ctrip | DRSC12242 | -2.05 | -2.09 | – |
| ctrip | DRSC12287 | -1.61 | 0.398 | – |
| ctrip | DRSC22449 | -3.03 | – | – |
| E(spl)mgamma-HLH | DRSC16699 | -1.44 | 2.17 | – |
| CG12078 | DRSC08242 | -1.09 | -0.709 | – |
| CG30412 | DRSC04564 | 0.0196 | -2.02 | -1.51 |
| DnaJ-H | DRSC03273 | 0.00118 | -0.29 | – |
| mim | DRSC05013 | 0.141 | -3.28 | – |
| mim | DRSC23045 | -0.0636 | -0.381 | – |
| CG13579 | DRSC04215 | 0.298 | 1.88 | – |
| CG12155 | DRSC17826 | -1 | -2.26 | -0.0367 |
| CG12155 | DRSC23294 | -0.885 | -0.206 | – |
| CG32820 + CG17450 + CG32819 | DRSC21803 | -0.531 | 1.75 | – |
| CG32820 + CG17450 + CG32819 | DRSC22812 | 0.345 | -1.91 | – |
| Sce | DRSC16825 | -0.0529 | – | – |
| igl | DRSC07631 | -3.25 | -0.291 | – |
| Nmdmc | DRSC16760 | 0.114 | -0.824 | – |
| RpL32 | DRSC16835 | 8.75 | – | -0.0643 |
| Hrb27C | DRSC03347 | -2.41 | -2.53 | – |
| CG17782 | DRSC15267 | -0.529 | -0.693 | – |
| CG17782 | DRSC23227 | 1.17 | 0.434 | – |
| Tapdelta | DRSC05946 | 0.714 | -1.27 | – |
| Gfat2 | DRSC14598 | 2.63 | 43.7 | – |
| Rubicon | DRSC17889 | 0.203 | 0.0929 | – |
| Jhbp2 | DRSC12292 | -0.461 | -0.608 | – |
| CG43901 | DRSC19397 | -0.454 | -0.492 | -2.03 |
| CG43901 | DRSC19652 | 0.0597 | -0.861 | 3.63 |
| Cyp12a4 | DRSC16620 | -0.74 | -0.377 | – |
| emei | DRSC10897 | -0.032 | -1.22 | -2.25 |
| emei | DRSC22684 | 2.8 | 0.693 | – |
| Stt3A | DRSC20514 | -0.145 | 0.00408 | – |
| Fas1 | DRSC16669 | -0.657 | -0.858 | – |
| Akh | DRSC08138 | -0.754 | 0.227 | – |
| AANATL7 | DRSC18616 | -1.36 | 1.33 | – |
| CG17734 | DRSC15256 | -0.991 | 0.19 | 0.535 |
| CG17192 | DRSC15186 | -0.496 | -0.316 | – |
| Ir52a | DRSC06262 | -0.548 | -0.389 | – |
| CG5326 | DRSC13568 | 0.89 | -0.183 | – |
| CG5326 | DRSC15770 | -2.24 | 1.59 | – |
| Vti1a | DRSC08563 | -0.0246 | -0.293 | – |
| Bap170 | DRSC04964 | 0.998 | 1.53 | – |
| Bap170 | DRSC21826 | 0.756 | -0.428 | – |
| flap | DRSC03918 | -1 | -0.694 | – |
| flap | DRSC04087 | 0.824 | 1.04 | – |
| Ltn1 | DRSC11056 | -1.94 | 0.382 | -0.0754 |
| Ltn1 | DRSC11058 | 0.161 | -0.0501 | – |
| CG18528 | DRSC15340 | -0.0509 | -1.94 | – |
| nrv3 | DRSC03097 | -1.61 | 0.0725 | – |
| CG18171 | DRSC08524 | -0.904 | 0.0278 | – |
| sns | DRSC06423 | 2.52 | -0.421 | – |
| sns | DRSC07687 | 0.822 | -1.63 | – |
| sns | DRSC07688 | 0.261 | -0.563 | – |
| sns | DRSC07689 | -1.27 | -1.25 | – |
| sns | DRSC07691 | -1.71 | -0.58 | – |
| sns | DRSC07692 | -0.824 | 3.28 | – |
| grh | DRSC05680 | -0.194 | 1.94 | – |
| grh | DRSC05683 | -1.32 | 0.0279 | – |
| grh | DRSC07624 | -0.33 | -0.0469 | – |
| grh | DRSC07625 | 1.46 | -0.734 | – |
